Changes are numbered by the printed parent chain. Results are given in words; binding and its absence hold for the method and conditions named. Some binding calls cover weakened binding; strength is not graded here.
How the values were obtained:
[1] = molecular target: endogenous human Tie1 of primary human endothelial cells (HDMEC/HDMVEC, HUVEC) and human tissues (human) (UniProt P35590); assay: Western blot, HDMEC
[2] = molecular target: endogenous human Tie1 of primary human endothelial cells (HDMEC/HDMVEC, HUVEC) and human tissues (human) (UniProt P35590); assay: immunofluorescence, HDMEC
[3] = molecular target: endogenous human Tie1 of primary human endothelial cells (HDMEC/HDMVEC, HUVEC) and human tissues (human) (UniProt P35590); assay: immunoprecipitation, HDMEC
[4] = molecular target: human Tie1, full length, V5-tagged (pcDNA3-Tie1-V5), in transiently transfected COS1 cells (human) (UniProt P35590); assay: Western blot, Tie1-V5-transfected COS1
[5] = molecular target: human Tie1, full length, V5-tagged (pcDNA3-Tie1-V5), in transiently transfected COS1 cells (human) (UniProt P35590); assay: immunofluorescence, Tie1-V5-transfected COS1
[6] = molecular target: human Tie1, full length, V5-tagged (pcDNA3-Tie1-V5), in transiently transfected COS1 cells (human) (UniProt P35590); assay: immunoprecipitation, Tie1-V5-transfected COS1
[7] = molecular target: endogenous human Tie1 of primary human endothelial cells (HDMEC/HDMVEC, HUVEC) and human tissues (human) (UniProt P35590); assay: Western blot, immunoprecipitation, immunofluorescence
[8] = molecular target: human Tie1, full length, V5-tagged (pcDNA3-Tie1-V5), in transiently transfected COS1 cells (human) (UniProt P35590); assay: as above
[9] = molecular target: endogenous human Tie1 of primary human endothelial cells (HDMEC/HDMVEC, HUVEC) and human tissues (human) (UniProt P35590); assay: immunohistochemistry, human skin
[10] = molecular target: endogenous human Tie1 of primary human endothelial cells (HDMEC/HDMVEC, HUVEC) and human tissues (human) (UniProt P35590); assay: immunohistochemistry, human kidney
[11] = molecular target: endogenous human Tie1 of primary human endothelial cells (HDMEC/HDMVEC, HUVEC) and human tissues (human) (UniProt P35590); assay: immunohistochemistry, human breast
[12] = molecular target: endogenous human Tie1 of primary human endothelial cells (HDMEC/HDMVEC, HUVEC) and human tissues (human) (UniProt P35590); assay: immunohistochemistry, human lung carcinoma
[13] = molecular target: endogenous human Tie1 of primary human endothelial cells (HDMEC/HDMVEC, HUVEC) and human tissues (human) (UniProt P35590); assay: immunohistochemistry, frozen human tissue sections
[14] = molecular target: endogenous human Tie1 of primary human endothelial cells (HDMEC/HDMVEC, HUVEC) and human tissues (human) (UniProt P35590); assay: immunohistochemistry, human lung

Protein sequences, listed by entry. Tags and fused reporters are not part of them. Lines headed by an entry give the natural chain unless they say otherwise; changes in a name come on top.
UniProt P35590: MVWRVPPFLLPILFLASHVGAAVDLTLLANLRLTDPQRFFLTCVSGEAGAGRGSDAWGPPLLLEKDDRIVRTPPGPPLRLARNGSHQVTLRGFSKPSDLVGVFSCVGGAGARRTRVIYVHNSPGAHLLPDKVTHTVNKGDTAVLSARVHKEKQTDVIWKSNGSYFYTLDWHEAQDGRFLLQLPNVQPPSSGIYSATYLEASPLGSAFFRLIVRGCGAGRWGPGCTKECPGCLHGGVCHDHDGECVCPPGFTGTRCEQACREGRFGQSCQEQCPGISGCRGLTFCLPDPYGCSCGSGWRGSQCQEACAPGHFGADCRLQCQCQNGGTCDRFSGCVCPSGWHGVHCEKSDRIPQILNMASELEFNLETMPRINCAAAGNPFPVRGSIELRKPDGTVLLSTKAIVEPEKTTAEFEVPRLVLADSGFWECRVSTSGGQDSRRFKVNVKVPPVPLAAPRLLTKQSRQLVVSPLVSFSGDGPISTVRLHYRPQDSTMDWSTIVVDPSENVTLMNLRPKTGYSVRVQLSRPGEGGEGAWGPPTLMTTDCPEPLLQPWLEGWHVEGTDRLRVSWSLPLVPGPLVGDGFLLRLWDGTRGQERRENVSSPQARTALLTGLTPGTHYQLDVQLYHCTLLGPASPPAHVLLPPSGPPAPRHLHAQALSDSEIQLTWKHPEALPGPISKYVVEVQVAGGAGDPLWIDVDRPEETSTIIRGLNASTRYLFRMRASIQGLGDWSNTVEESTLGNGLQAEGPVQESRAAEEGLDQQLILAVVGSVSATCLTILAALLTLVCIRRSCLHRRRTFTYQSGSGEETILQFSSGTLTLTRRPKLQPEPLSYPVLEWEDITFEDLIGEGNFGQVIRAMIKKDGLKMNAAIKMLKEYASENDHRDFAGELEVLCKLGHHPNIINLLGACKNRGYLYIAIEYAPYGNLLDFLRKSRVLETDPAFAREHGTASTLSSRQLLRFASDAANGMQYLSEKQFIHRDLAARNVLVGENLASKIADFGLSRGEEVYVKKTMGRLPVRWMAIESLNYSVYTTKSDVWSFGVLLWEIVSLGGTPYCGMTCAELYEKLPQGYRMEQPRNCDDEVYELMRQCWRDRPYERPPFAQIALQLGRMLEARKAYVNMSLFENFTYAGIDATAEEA

Measured: binding

B1: A10 IgG (anti-Tie1 isolate s-A10, human IgG1) (antibody, V domains shown)
VH: EVQLLESGGGLVQPGGSLRLSCAASGFTFSNYVMVWVRQAPGKGLEWVSGIYPSGGHTKYADSVKGRFTISRDNSKNTLYLQMNSLRAEDTAVYYCARVNYYDSSGYGPIAPGLDYWGQGTLV
VL: DIQMTQSPGTLSLSPGERATLFCRASQRVTSNSLAWYQQRPGQAPRLLIYDASTRATGIPDRFSGSGSGRDFTLTISRLEPEDFAVYYCQRYGSSVLYSFGQGTKLEIT
binds: [1] | [2] | [3] | [4] | [5] | [6] | [7] | [8]

B2: H4 IgG (anti-Tie1 isolate s-H4, human IgG1) (antibody, V domains shown)
VH: EVQLLESGGGLVQPGGSLRLSCAASGFTFSSYKMGWVRQAPGKGLEWVSSIYPSGGWTHYADSVKGRFTISRDNSKNTLYLQMNSLRAEDTAVYYCARVLLHYFDYWGQGTLV
VL: AQSVLTQPASVSGSPGQSITISCTGTSSDVGGYKYVSWYQQHPGKAPKLIISDVNNRPSGVSDRFSGSKSGNTASLTISGLQAEDDGDYYCSSYASSSYTSSTTWVFGGGTKLTVLG
binds: [1] | [2] | [3] | [4] | [5] | [6] | [7] | [8]

B3: C7 IgG (anti-Tie1 isolate s-C7, human IgG1) (antibody, V domains shown)
VH: EVQLLESGGGLVQPGGSLRLSCAASGFTFSRYVMYWVRQAPGKGLEWVSVIYPSGGATYYADSVKGRFTISRDNSKNTLYLQMNSLRAEDTAVYYCARRGSSGAFDYWGQGTLVTVSS
VL: AQSVLTQPASVSGSPGQSITISCTGTSSDIGRYNYASWYQQRPGKSPKLLIYEVSDRPSGVSNRFSGSKSGNTASLIISGLQAEDEADYYCSSYSSTNSLQVVFGGGTKLSVLG
binds: [1] | [2] | [3] | [4] | [5] | [6] | [7] | [8]

B4: A2 IgG (anti-Tie1 isolate s-A2, human IgG1) (antibody, V domains shown)
VH: EVQLLESGGGLVQPGGSLRLSCAASGFTFSRYTMMWVRQAPGKGLEWVSGIYPSGGVTLYADSVKGRFTISRDNSKNTLYLQMNSLRAEDTAVYYCARVNYYDSSGYGPIAPGLDYWGQGTLVTVSS
VL: DIQMTQSPGTLSLSPGERATLSCRASRSVIISYVAWYQQKPGQAPRLLIYGASTRATGIPDRFSGSGSGTDFTLTISRLEPEDFAVYFCQLYGRSPRIIFGQGTRLEIK
binds: [1] | [2] | [3] | [4] | [5] | [6] | [7] | [8]

B5: B9 IgG (anti-Tie1 isolate s-B9, human IgG1) (antibody, V domains shown)
VH: B4 VH with R31S, T33V, V57W, L59Y, A61T
VL: DIQMTQSPSSLSASVGDRVTITCRASQSVSSHLSWFQQRPGKAPNLLIYHASSLQSGVPSRFSGSGSGTDFTLTISSLQPEDFATYYCQQSYATSSITFGQGTRLDIK
binds: [1] | [2] | [3] | [4] | [5] | [6] | [7] | [8]

B6: C2 IgG (anti-Tie1 isolate s-C2, human IgG1) (antibody, V domains shown)
VH: B4 VH with T33K, M35K, G50V, V57G, L59G
VL: AQSVLTQPDSVSGSPGESITISCTGSSRDVGGYNYVSWYQQHPGKAPKLLLYDVTYRPSGISGRFSGSKSGDTASLTISGLRTEDEADYYCSSSIGTRTYVFGSGTKVTVLR
binds: [1] | [2] | [3] | [4] | [5] | [6] | [7] | [8]

B7: C10 IgG (anti-Tie1 isolate s-C10, human IgG1) (antibody, V domains shown)
VH: B4 VH with R31A, T33G, M35S, G50V, V57W, L59Y
VL: DIQMTQSPGTLSLSPGERATLSCRASQSVSSSYLAWYQQKPGQAPRLLIYGASSRATGIPDRFSGSGSGTDFTLTISRLEPEDFAVYYCQQYNNWPRTFGQGTKVEIK
binds: [1] | [2] | [3] | [4] | [5] | [6] | [7] | [8]

B8: B2 IgG (anti-Tie1 isolate s-B2, human IgG1) (antibody, V domains shown)
VH: EVQLLESGGGLVQPGGSLRLSCAASGFTFSIYGMAWVRQAPGKGLEWVSVISPSGGQTFYADSVKGRFTISRDNSKNTLYLQMNSLRAEDTAVYYCARVYYYGMDVWGQGTTVTVSS
VL: DIQMTQSPATLSLSPGERATLSCRASQSVSSYLAWYQQKPGQAPRLLIYDASNRATGIPARFSGSGSETDFTLTISSLEPEDFAVYYCQQRSKWPRTFGQGTKLEIK
binds: [1] | [2] | [9] | [10] | [11] | [4] | [12] | [5] | [6] | [13] | [7] | [8]

B9: D11 IgG (anti-Tie1 isolate s-D11, human IgG1) (antibody, V domains shown)
VH: EVQLLESGGGLVQPGGSLRLSCAASGFTFSGYAMWWVRQAPGKGLEWVSSISPSGGATAYADSVKGRFTISRDNSKNTLYLQMNSLRAEDTAVYYCARDAGSYYWGWFDPWGQGTLVTVSS
VL: B8 VL with V29I, A43P, N53S, A55V, S67F, E68G, Q89L, K93S
binds: [1] | [2] | [9] | [14] | [10] | [11] | [4] | [5] | [6] | [7] | [8]

From patent US20060024297A1 (published 2006)
